We go through one molecule from article PMC7686350.

Chains of the proteins cited; added tags and fusions are not shown. Lines headed by an entry give the natural chain unless they say otherwise; changes in a name come on top.
UniProt Q9WTN3: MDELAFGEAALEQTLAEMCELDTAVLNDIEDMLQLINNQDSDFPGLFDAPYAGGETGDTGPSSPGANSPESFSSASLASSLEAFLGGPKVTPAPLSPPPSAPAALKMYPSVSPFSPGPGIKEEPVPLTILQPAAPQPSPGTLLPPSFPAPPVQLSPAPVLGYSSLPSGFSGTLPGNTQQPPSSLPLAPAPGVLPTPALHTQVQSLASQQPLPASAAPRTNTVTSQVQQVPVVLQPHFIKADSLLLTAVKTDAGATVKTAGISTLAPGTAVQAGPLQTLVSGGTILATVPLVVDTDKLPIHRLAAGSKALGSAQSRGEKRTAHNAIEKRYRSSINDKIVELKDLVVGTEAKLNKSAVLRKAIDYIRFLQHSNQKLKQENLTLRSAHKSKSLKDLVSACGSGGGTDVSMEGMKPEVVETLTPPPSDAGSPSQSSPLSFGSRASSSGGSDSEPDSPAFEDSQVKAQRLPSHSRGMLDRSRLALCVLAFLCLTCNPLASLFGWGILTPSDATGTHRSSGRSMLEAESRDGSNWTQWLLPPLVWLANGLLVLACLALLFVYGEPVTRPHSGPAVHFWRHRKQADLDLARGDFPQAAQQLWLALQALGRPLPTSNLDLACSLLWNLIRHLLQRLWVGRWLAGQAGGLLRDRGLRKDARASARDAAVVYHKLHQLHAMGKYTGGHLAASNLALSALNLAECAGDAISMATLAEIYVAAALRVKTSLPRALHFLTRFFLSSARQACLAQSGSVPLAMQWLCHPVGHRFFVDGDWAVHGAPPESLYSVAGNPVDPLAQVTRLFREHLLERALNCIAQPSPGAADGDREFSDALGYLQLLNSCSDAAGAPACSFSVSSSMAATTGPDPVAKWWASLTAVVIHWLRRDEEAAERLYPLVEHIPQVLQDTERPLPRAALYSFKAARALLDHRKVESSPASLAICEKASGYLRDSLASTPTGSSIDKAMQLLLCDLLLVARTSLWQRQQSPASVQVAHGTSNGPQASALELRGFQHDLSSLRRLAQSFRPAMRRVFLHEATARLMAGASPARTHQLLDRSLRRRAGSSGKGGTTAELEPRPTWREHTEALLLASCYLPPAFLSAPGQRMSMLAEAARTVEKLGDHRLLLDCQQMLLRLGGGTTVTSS

Results are given in words; binding and its absence hold for the method and conditions named. Binding seen in cells or lysates may run through a third protein. Binding can be weak; no strength is given.

For this test, the target named is sterol-regulatory element binding protein-1 (SREBP1), endogenous in mouse liver (mouse (endogenous in mouse liver)) (UniProt Q9WTN3). The experiment in a line: co-IP; mouse liver extracts; mice fasted overnight and treated with vehicle or FGF19 for 2 h, or refed normal chow for the indicated times (C57BL/6, FGF15-KO mice or littermates); CoIP buffer 50 mM Tris-HCl pH 8.0, 150 mM NaCl, 2 mM EDTA, 0.5% NP-40, 5% glycerol; 1-2 ug antibody 3 h, protein G agarose; bound proteins detected by IB.

B1: Small Heterodimer Partner (SHP/NR0B2), endogenous in mouse liver (protein, UniProt Q62227 1-260)
chain: MSSGQSGVCPCQGSAGRPTILYALLSPSPRTRPVAPASHSHCLCQQQRPVRLCAPHRTCREALDVLAKTVAFLRNLPSFCHLPHEDQRRLLECCWGPLFLLGLAQDAVTFEVAEAPVPSILKKILLEEASSGTQGAQPSDRPQPSLAAVQWLQRCLESFWSLELGPKEYAYLKGTILFNPDVPGLRASCHIAHLQQEAHWALCEVLEPWYPASQGRLARILLMASTLKNIPGTLLVDLFFRPIMGDVDITELLEDMLLLR
Consider B1, for which the binding result was “binds”.
